This assay concerns the target endogenous PfMyoF (Plasmodium falciparum 3D7 (endogenous in parasite lysate)) (UniProt Q8IE50). The experiment in a line: affinity purification with mass spectrometry.

These are yes or no findings as the source states them, for the method shown. Binding seen in cells or lysates may run through a third protein. These calls come from enrichment with a bait or labelling near it, and not all partners need be listed.

B1: SEY1 (protein, UniProt Q8ILT5 1-937)
chain: MEKGVEKTQIIDYDGNVIEDLKEWMIDNKLNDLGFSYNVIAVLGSQSSGKSTLLNNLFKTSFDVMNTKQGHSQTTKGLWLSYDKFDDETNNSSSFFKLKKKNKPTLILDVEGTDSKERGDNRLTFEHRSALFCLALADCVIVNLWYHSLGNFTASNYGLLKTVMEVNLELFQQEKNSPKTILLFTVRDWFEEFAPIEVVRNKILDEYINKIWKEMKKPKEAEKLNINNFFIIEVVGLSHGIIKKEDFLKDVNNLRDKWINNLRPSKYSRNIPSDGFAQYCNNIWNTIVKQSQLDIPSQKEMLSTFRCQEIKNNVINNINKEIKEKSIESHNKVIENFKEWAEKNIIQKCLDDYFKDASRYKENICLRTSQELLDYLFTQLQAIVDNNLQYIQRTLCTKFFNELSNMYKICTIEKNTFSFSRDSNLKTVKDNNKNTSHEDIKRDLLNNNQDKCVHLWSNFLYNADKLEYFTFCNFYENYEKSNIEIKTNMKNDDNLKNDDNLKNDAHNNITTHQFNYKPTLSVLSTSIYKDSNRIRNIQCGILLNKTRQTIKNSFKNMDTYLLTTKNTEEYWNNTVQLVLKLQDNINTHLTKCFINLKGTNHNNLNIYNDDMMYNNDDMVFNNNDDDDNNNNNNNNNYYYYNKNDDANLSKDENYNNKFSFSLTNEKGIFQNINNNNEGSDEICYTNALKKIDLIKNKQVYKSTINEDINNKLQNKKYIHELKNYYLDEIMDVLKNKLDEISENLATIIIQRFESVFNYDEYEQPRQWRDISMAELKKIFLKSKNYAFLIIDILQKNIKVELIDDYLPNNFIKDEIIEKGKIKAKRRIQEICRDAQYIQETGSKMSLKNVPVVFWIILLLFGWNEILFFIRMFFKLNVILPLFFAAAFIVSTFVYNGNTQALSYINKIIFYMAKNSYNFFKHIQAISNPPPKNVQKQE
On to B1, for which the binding result is recorded as “binds”.

Source of the values: doi:10.1101/2025.11.10.687607.
